Source: PMC6937732

T1: recombinant TOPK (Signalchem, T14-10G-10) (UniProt Q96KB5)
T1 sequence: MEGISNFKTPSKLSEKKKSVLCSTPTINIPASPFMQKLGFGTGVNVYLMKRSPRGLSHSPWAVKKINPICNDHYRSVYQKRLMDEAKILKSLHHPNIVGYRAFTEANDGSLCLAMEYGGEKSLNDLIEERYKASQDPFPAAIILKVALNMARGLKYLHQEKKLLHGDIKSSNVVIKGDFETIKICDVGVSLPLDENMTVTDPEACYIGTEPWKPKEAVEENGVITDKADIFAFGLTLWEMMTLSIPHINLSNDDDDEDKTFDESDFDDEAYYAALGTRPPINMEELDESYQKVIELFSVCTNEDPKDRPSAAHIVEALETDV

T2: glutathione-S-transferase (GST)-tagged TOPK protein (UniProt Q96KB5)
T2 sequence: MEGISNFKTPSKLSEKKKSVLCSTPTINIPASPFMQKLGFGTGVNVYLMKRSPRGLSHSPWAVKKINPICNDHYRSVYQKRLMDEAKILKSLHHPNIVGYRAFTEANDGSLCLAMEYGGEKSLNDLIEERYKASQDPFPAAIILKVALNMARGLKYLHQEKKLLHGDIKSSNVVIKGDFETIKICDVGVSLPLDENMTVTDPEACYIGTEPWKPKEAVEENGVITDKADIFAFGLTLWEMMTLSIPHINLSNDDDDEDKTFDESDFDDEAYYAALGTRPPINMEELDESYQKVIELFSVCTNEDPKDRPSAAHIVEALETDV


Key:
[1] = biological target: T1, recombinant TOPK (Signalchem, T14-10G-10); assay: affinity purification with mass spectrometry; TOPK captured by an anti-GST antibody immobilised on a CM5 chip (Biacore T200); KYSE510 cell lysate flowed over at 10 μL/min for 5 min in 1X kinase buffer, pH 7.2; captured proteins recovered and identified by LC-ESI-MS/MS; proteins with a score higher than 25 chosen; control without TOPK; only the target purified
[2] = biological target: T2, glutathione-S-transferase (GST)-tagged TOPK protein; assay: as above

Molecule | binding [1] | binding [2]
EEF1A (human (endogenous in KYSE510)) | binds | binds
plakophilin-1 (protein, UniProt Q13835 1-747) MNHSPLKTALAYECFQDQDNSTLALPSDQKMKTGTSGRQRVQEQVMMTVKRQKSKSSQSSTLSHSNRGSMYDGLADNYNYGTTSRSSYYSKFQAGNGSWGYPIYNGTLKREPDNRRFSSYSQMENWSRHYPRGSCNTTGAGSDICFMQKIKASRSEPDLYCDPRGTLRKGTLGSKGQKTTQNRYSFYSTCSGQKAIKKCPVRPPSCASKQDPVYIPPISCNKDLSFGHSRASSKICSEDIECSGLTIPKAVQYLSSQDEKYQAIGAYYIQHTCFQDESAKQQVYQLGGICKLVDLLRSPNQNVQQAAAGALRNLVFRSTTNKLETRRQNGIREAVSLLRRTGNAEIQKQLTGLLWNLSSTDELKEELIADALPVLADRVIIPFSGWCDGNSNMSREVVDPEVFFNATGCLRKRLGMRELLALVPQRATSSRVNLSSADAGRQTMRNYSGLIDSLMAYVQNCVAASRCDDKSVENCMCVLHNLSYRLDAEVPTRYRQLEYNARNAYTEKSSTGCFSNKSDKMMNNNYDCPLPEEETNPKGSGWLYHSDAIRTYLNLMGKSKKDATLEACAGALQNLTASKGLMSSGMSQLIGLKEKGLPQIARLLQSGNSDVVRSGASLLSNMSRHPLLHRVMGNQVFPEVTRLLTSHTGNTSNSEDILSSACYTVRNLMASQPQLAKQYFSSSMLNNIINLCRSSASPKAAEAARLLLSDMWSSKELQGVLRQQGFDRNMLGTLAGANSLRNFTSRF | binds | binds
dermcidin (protein, UniProt P81605 20-110) YDPEAASAPGSGNPCHEASAAQKENAGEDPGLARQAPKPRKQRSSLLEKGLDGAKKAVGGLGKLGKDAVEDLESVGKGAVHDVKDVLDSVL | binds | binds
γ-catenin (protein, UniProt P14923 1-745) MEVMNLMEQPIKVTEWQQTYTYDSGIHSGANTCVPSVSSKGIMEEDEACGRQYTLKKTTTYTQGVPPSQGDLEYQMSTTARAKRVREAMCPGVSGEDSSLLLATQVEGQATNLQRLAEPSQLLKSAIVHLINYQDDAELATRALPELTKLLNDEDPVVVTKAAMIVNQLSKKEASRRALMGSPQLVAAVVRTMQNTSDLDTARCTTSILHNLSHHREGLLAIFKSGGIPALVRMLSSPVESVLFYAITTLHNLLLYQEGAKMAVRLADGLQKMVPLLNKNNPKFLAITTDCLQLLAYGNQESKLIILANGGPQALVQIMRNYSYEKLLWTTSRVLKVLSVCPSNKPAIVEAGGMQALGKHLTSNSPRLVQNCLWTLRNLSDVATKQEGLESVLKILVNQLSVDDVNVLTCATGTLSNLTCNNSKNKTLVTQNSGVEALIHAILRAGDKDDITEPAVCALRHLTSRHPEAEMAQNSVRLNYGIPAIVKLLNQPNQWPLVKATIGLIRNLALCPANHAPLQEAAVIPRLVQLLVKAHQDAQRHVAAGTQQPYTDGVRMEEIVEGCTGALHILARDPMNRMEIFRLNTIPLFVQLLYSSVENIQRVAAGVLCELAQDKEAADAIDAEGASAPLMELLHSRNEGTATYAAAVLFRISEDKNPDYRKRVSVELTNSLFKHDPAAWEAAQSMIPINEPYGDDMDATYRPMYSSDVPLDPLEMHMDMDGDYPIDTYSDGLRPPYPTADHMLA | binds | 

Results are given in words; binding and its absence hold for the method and conditions named. In cells and extracts the contact can be indirect. These calls come from enrichment with a bait or labelling near it, and not all partners need be listed. For some of these results: Tags and fused reporters may be left off the sequences shown.
